Literature values as cited in patent EP2252246B1, “CHEMOPROTECTIVE METHODS AND COMPOSITIONS” (BIONUMERIK PHARMACEUTICALS, INC., priority 2008, dated 2009).

Settings: in vitro; cited from earlier work

O=S(=O)(O)CCS [mesna, 2-mercapto ethane sulfonate sodium, reference compound]
direct reaction with paclitaxel: does not directly react

O=S(=O)([O-])CCSSCCS(=O)(=O)[O-].[Na+].[Na+] [Tavocept, disodium 2,2'-dithio-bis-ethane sulfonate]
direct reaction with paclitaxel: does not directly react
